In patent US20150259687A1:
No constants are given. Whether binding was seen depends on the method and setting. Binding seen in cells or lysates may run through a third protein. Some binding calls cover weakened binding; strength is not graded here.

Protein sequences, listed by entry. Tags and fused reporters are not part of them. Residues count along the entry.
UniProt Q04206, residues 1-313: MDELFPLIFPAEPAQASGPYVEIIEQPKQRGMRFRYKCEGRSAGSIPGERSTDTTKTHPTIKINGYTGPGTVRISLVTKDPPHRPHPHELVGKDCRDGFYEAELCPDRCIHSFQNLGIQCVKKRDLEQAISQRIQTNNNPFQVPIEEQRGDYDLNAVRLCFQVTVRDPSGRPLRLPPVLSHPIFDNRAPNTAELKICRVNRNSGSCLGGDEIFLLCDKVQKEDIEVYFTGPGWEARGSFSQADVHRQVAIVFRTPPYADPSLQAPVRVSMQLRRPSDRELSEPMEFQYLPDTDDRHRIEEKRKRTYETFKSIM
UniProt P25963: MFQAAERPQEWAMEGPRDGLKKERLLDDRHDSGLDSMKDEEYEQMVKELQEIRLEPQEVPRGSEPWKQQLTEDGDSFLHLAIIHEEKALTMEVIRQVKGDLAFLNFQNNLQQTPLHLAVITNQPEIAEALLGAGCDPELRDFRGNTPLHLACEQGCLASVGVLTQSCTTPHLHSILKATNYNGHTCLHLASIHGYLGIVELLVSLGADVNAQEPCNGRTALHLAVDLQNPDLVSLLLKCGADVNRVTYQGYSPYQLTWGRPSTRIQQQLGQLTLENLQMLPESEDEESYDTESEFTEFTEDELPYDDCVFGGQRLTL

Experiments:
[1] = target: GST-RelA (1-313) fusion protein (human) (UniProt Q04206); assay: nondenaturing coimmunoprecipitation with anti-RelA Ab, immunoblot with anti-IκBα (legend of FIG. 5A)
[2] = target: GST-RelA (1-313) fusion protein (human) (UniProt Q04206); assay: nondenaturing coimmunoprecipitation of purified recombinant proteins with anti-RelA Ab, immunoblot with anti-IκBα
[3] = target: GST-RelA (1-313) fusion protein (human) (UniProt Q04206); assay: nondenaturing coimmunoprecipitation with anti-RelA Ab, Western immunoblot with anti-IκBα

Measured: binding

recombinant full length GST-IκBα (from UniProt P25963 1-317)
binds: all assays above
